# This is one part of the list. The main result of the screen is listed elsewhere. These columns were measured beside it and carry no call. Compounds called inactive in the main read-out are mostly missing here. The note in brackets gives the kind of curve behind each potency; many fits are weak.
# Assay: IkB Signaling
# Conditions: ABC-DLBCL IkBa-CBG/CBR dual luciferase ratio (green luciferase fused to IkBa over red control in OCI-Ly3 lymphoma cells), 4 h
# Method in brief: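 Luminescence ratio of IκBα-fused green versus native red beetle luciferase in OCI-Ly3 cells, 4 h post-doxycycline with compound; red signal alone, scaled from basal (0%) to zero light (-100%), flagged nonspecific or cytotoxic effects.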
# [1] = measured here: control luc red channel unless noted
structure (smiles),measurement,setting,value
Cc1ccc(S(=O)(=O)N(CC(=O)NCCSc2ccc(Cl)cc2)c2cccc(Cl)c2)cc1,AC50,[1],"31.6 µM [falling, partial curve]"
CCc1cc(=O)[nH]c(SCc2nc(-c3ccc(C(F)(F)F)cc3)no2)n1,AC50,[1],"6.31 µM [falling, partial curve, poor fit]"
COc1ccc(N2CCN(C(c3ccc(F)cc3)c3sc4nc(-c5ccco5)nn4c3O)CC2)cc1 (stereo unspecified),AC50,[1],"39.8 µM [falling, single point]"
Cn1c(C(=O)NCc2cccc(Cl)c2)cc2oc3ccccc3c21,AC50,[1],"7.94 µM [falling, partial curve]"
CC(=O)c1ccc(N2CCN(C(=O)CCCn3c(=O)[nH]c4ccsc4c3=O)CC2)cc1,AC50,[1],"0.01 µM [falling, full curve, poor fit]"
CCC(=C(CC)c1ccc(O)cc1)c1ccc(O)cc1,AC50,[1],"15.8 µM [rising, single point] [measured here: IkB-luc green channel]"
COc1ccc(C(CC(=O)Nc2ccc(Br)cn2)N2Cc3ccccc3C2=O)cc1 (stereo unspecified),AC50,[1],"31.6 µM [falling, single point]"
COc1ccccc1CCNC(=O)C1CCN(c2nnc(C)c3c(C)n(-c4ccc(C)cc4)nc23)CC1,AC50,[1],"12.6 µM [falling, partial curve]"
CCOc1ccccc1NC(=O)N1CCC(c2nc3ccccc3[nH]2)CC1,AC50,[1],"25.1 µM [falling, partial curve]"
Cc1ccc(Cn2c(CN3CCN(c4cccc(Cl)c4)CC3)nc3c2c(=O)n(C)c(=O)n3C)cc1,AC50,[1],"20 µM [falling, partial curve]"
Cc1cc2cc(CNC(=O)c3ccc4c(c3)OCO4)ccc2[nH]1,AC50,[1],"12.6 µM [falling, partial curve]"
O=C(Nc1nc(-c2ccc(S(=O)(=O)N3CCCC3)cc2)cs1)c1cccs1,AC50,[1],"2.51 µM [falling, full curve]"
CC(C)c1cc(-c2nc(-c3cccc(Cl)c3)no2)n[nH]1,AC50,[1],"20 µM [falling, partial curve]"
COc1ccc(NC(=O)CSc2nnc(COc3ccccc3)n2Cc2ccco2)cc1OC,AC50,[1],"10 µM [falling, partial curve]"
CCOc1ccc(CNC(=O)CSc2c3c(nc4ccc(Cl)cc24)CCCC3)cc1,AC50,[1],"3.16 µM [falling, full curve, poor fit]"
COc1ccc(C)c2sc(N3CCN(C(=O)c4ccco4)CC3)nc12,AC50,[1],"3.98 µM [rising, partial curve]"
CCCOc1cccc(C(=O)Nc2cccc(NC(=O)c3ccc(Cl)cc3Cl)c2)c1,AC50,[1],"3.16 µM [falling, full curve]"
CCCCNc1cc(NC(C)=O)cc2cc(OC)c(OC)cc12,AC50,[1],"31.6 µM [falling, single point]"
O=C(Cn1cc(C(=O)c2cccs2)c2ccccc21)Nc1ccc(Br)cc1,AC50,[1],"7.94 µM [falling, full curve]"
CCN1C(=O)c2ccccc2S(=O)c2ccc(C(=O)NCc3ccc(Cl)cc3)cc21 (stereo unspecified),AC50,[1],"12.6 µM [falling, partial curve]"
CCN(c1cccc(C)c1)S(=O)(=O)c1c(C)nc2sc(C)cn2c1=O,AC50,[1],"31.6 µM [falling, single point]"
COc1cccc(C(c2sc3nc(-c4ccco4)nn3c2O)N2CCN(C)CC2)c1 (stereo unspecified),AC50,[1],"39.8 µM [rising, single point]"
COc1ccc(Cl)cc1NC(=O)CSc1nnc(Cc2cccn2C)n1-c1ccc(F)cc1,AC50,[1],"15.8 µM [falling, partial curve]"
CN=c1nc(-c2ccccc2)n(-c2ccccc2)s1,AC50,measured here: IkB-luc green channel,"25.1 µM [falling, single point]"
same,AC50,measured here: control luc red channel,"31.6 µM [falling, partial curve]"
Cc1ccc(OCC(=O)Nc2ccc(O)c(C(=O)O)c2)cc1C,AC50,[1],"12.6 µM [falling, partial curve]"
Cc1nn(-c2ccc(F)cc2)c2sc(C(=O)OCC(=O)N3CCC(C)CC3)cc12,AC50,[1],"0.501 µM [falling, full curve, poor fit]"
COc1ccc(-c2nc(C#N)c(NCCc3ccccc3)o2)cc1OC,AC50,[1],"39.8 µM [falling, single point]"
Cn1cccc1C(=O)OCC(=O)c1cc2ccccc2o1,AC50,[1],"5.01 µM [falling, full curve, poor fit]"
COc1ccccc1CNC(=O)C1CCN(c2nnc(C)c3c(C)n(-c4ccccc4)nc23)CC1,AC50,[1],"15.8 µM [falling, single point]"
CC(C)CC(=O)OCc1cc(=O)n2nc(C3CCCCC3)sc2n1,AC50,[1],"3.16 µM [falling, single point]"
Cc1ccc(NC(=O)CN2C(=O)CC(c3ccc(C)c(C)c3)=Nc3ccccc32)cc1,AC50,[1],"15.8 µM [falling, partial curve]"
O=C(c1cccc(C(=O)N2CCN(c3ccccc3)CC2)c1)N1CCN(c2ccccc2)CC1,AC50,[1],"15.8 µM [falling, partial curve]"
Cc1cc(C(=O)Nc2nc3c(s2)CCCC3)no1,AC50,[1],"12.6 µM [falling, partial curve]"
Cc1ccc2nc(COc3ccccc3NC(=O)c3ccccc3C)cc(=O)n2c1,AC50,[1],"6.31 µM [falling, partial curve]"
COc1ccc(-c2nnc(SCC(=O)Nc3cc(OC)ccc3OC)nc2-c2ccc(OC)cc2)cc1,AC50,[1],"39.8 µM [falling, single point]"
COc1ccccc1CN(Cc1cc2cc(C)ccc2[nH]c1=O)Cc1nnnn1Cc1ccco1,AC50,[1],"1 µM [falling, full curve]"
Cc1cccc(CCNC(=O)c2ccc3c(c2)nc2n3CCC(C)C2)c1 (stereo unspecified),AC50,[1],"0.316 µM [falling, single point]"
COc1ccc(OC)c(NC(=O)c2ccc3c(SCC(=O)O)c4c(nc3c2)CCCC4)c1,AC50,[1],"15.8 µM [falling, single point]"
Cc1cccc(-c2noc(-c3ccc(NCc4ccco4)c([N+](=O)[O-])c3)n2)c1,AC50,[1],"7.94 µM [falling, full curve]"
CCCCCCCCCCCCCCCC(=O)NC[C@@H](COP(=O)([O-])OCC[N+](C)(C)C)OCC,AC50,[1],"6.31 µM [falling, partial curve, poor fit] [measured here: IkB-luc green channel]"

# 2 records picked at random from the list so far, as already listed:
structure (smiles),measurement,setting,value
COc1ccc(-c2nnc(SCC(=O)Nc3cc(OC)ccc3OC)nc2-c2ccc(OC)cc2)cc1,AC50,[1],"39.8 µM [falling, single point]"
COc1cccc(C(c2sc3nc(-c4ccco4)nn3c2O)N2CCN(C)CC2)c1 (stereo unspecified),AC50,[1],"39.8 µM [rising, single point]"
